Data published in doi:10.1101/2022.05.16.492168.
No constants are given. Whether binding was seen depends on the method and setting. In cells and extracts the contact can be indirect. A yes stands for co-enrichment or nearness to the bait. Other partners may have been found. For part of these data: Tags and fused reporters may be left off the sequences shown.

Chains of the proteins cited; added tags and fusions are not shown. Lines headed by an entry give the natural chain unless they say otherwise; changes in a name come on top.
UniProt Q8L8T7: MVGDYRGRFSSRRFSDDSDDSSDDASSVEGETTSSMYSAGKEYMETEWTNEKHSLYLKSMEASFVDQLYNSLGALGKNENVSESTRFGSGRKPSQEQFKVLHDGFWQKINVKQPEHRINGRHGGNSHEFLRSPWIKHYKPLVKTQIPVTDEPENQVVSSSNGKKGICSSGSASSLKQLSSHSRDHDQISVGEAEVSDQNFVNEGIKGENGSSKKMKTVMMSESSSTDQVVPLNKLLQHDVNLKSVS
UniProt Q9M2S1: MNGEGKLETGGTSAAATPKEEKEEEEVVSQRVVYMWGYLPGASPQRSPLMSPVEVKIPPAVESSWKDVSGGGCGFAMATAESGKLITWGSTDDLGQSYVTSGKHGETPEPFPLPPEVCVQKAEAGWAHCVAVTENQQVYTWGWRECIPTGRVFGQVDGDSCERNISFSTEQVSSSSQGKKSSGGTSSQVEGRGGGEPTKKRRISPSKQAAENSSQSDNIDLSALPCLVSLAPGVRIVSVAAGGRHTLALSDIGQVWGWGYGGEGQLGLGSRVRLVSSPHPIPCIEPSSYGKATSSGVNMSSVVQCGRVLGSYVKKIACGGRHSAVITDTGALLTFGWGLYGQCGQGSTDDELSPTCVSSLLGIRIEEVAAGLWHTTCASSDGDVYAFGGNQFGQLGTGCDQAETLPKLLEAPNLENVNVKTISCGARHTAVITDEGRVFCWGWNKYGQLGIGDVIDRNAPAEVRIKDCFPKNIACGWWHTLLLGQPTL
UniProt P14713: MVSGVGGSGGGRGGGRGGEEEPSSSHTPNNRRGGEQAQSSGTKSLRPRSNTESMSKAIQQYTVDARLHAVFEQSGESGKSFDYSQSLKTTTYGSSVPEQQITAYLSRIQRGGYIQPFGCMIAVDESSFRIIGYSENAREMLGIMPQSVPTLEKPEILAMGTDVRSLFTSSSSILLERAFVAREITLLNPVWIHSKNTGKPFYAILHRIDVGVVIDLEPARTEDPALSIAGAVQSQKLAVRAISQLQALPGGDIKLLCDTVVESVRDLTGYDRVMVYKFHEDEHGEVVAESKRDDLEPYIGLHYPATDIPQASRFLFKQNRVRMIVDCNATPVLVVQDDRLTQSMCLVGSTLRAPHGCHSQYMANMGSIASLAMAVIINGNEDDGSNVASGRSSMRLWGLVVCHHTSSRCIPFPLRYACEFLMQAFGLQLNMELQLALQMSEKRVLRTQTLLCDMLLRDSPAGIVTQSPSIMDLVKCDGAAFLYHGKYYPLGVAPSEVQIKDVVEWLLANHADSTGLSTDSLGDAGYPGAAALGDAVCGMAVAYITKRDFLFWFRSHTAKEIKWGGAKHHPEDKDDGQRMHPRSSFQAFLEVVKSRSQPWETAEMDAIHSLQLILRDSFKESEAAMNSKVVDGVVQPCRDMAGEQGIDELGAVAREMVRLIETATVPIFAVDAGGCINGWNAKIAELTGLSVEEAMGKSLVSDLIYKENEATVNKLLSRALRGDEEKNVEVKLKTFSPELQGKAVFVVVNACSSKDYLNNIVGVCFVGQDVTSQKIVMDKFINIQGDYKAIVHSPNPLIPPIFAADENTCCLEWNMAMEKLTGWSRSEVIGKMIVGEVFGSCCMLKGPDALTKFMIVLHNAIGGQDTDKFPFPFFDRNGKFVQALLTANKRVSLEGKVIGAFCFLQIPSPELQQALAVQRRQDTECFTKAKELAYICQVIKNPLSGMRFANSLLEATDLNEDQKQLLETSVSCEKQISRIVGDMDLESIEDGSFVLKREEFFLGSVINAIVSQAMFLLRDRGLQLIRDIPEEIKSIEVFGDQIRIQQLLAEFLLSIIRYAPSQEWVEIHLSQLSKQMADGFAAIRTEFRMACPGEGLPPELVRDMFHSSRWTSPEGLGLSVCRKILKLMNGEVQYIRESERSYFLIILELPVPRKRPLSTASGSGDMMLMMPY

Columns and labels:
Test in all cases: affinity purification with mass spectrometry
[1] = biological target: T1, LNK1-HFC (NIGHT LIGHT INDUCIBLE AND CLOCK REGULATED 1 with 3x-FLAG-6x-His C-terminal tag) (Arabidopsis thaliana) (UniProt A8MQN2)
T1 sequence: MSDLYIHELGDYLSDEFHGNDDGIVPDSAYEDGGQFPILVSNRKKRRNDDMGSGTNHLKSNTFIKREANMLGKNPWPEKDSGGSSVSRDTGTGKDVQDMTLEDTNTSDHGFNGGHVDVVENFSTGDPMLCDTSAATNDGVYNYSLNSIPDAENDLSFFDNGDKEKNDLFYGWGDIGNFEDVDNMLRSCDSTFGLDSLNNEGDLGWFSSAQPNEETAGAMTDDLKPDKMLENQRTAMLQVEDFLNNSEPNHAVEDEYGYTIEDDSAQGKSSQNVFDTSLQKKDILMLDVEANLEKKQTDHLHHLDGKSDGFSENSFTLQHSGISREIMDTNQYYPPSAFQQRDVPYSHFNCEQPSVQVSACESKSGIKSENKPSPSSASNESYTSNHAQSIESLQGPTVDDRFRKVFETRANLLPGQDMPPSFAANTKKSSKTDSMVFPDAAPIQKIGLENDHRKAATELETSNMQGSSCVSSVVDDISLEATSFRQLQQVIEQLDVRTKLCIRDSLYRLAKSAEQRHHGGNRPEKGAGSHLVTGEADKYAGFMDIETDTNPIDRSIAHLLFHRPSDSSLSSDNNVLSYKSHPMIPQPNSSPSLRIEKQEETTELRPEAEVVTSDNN

[2] = biological target: YFP-COR27 (COLD REGULATED GENE 27) (Arabidopsis thaliana) (UniProt Q8L8T7)
[3] = biological target: T2, LNK2-HFC (NIGHT LIGHT INDUCIBLE AND CLOCK REGULATED 2 with 3x-FLAG-6x-His C-terminal tag) (Arabidopsis thaliana) (UniProt F4JCX9)
T2 sequence: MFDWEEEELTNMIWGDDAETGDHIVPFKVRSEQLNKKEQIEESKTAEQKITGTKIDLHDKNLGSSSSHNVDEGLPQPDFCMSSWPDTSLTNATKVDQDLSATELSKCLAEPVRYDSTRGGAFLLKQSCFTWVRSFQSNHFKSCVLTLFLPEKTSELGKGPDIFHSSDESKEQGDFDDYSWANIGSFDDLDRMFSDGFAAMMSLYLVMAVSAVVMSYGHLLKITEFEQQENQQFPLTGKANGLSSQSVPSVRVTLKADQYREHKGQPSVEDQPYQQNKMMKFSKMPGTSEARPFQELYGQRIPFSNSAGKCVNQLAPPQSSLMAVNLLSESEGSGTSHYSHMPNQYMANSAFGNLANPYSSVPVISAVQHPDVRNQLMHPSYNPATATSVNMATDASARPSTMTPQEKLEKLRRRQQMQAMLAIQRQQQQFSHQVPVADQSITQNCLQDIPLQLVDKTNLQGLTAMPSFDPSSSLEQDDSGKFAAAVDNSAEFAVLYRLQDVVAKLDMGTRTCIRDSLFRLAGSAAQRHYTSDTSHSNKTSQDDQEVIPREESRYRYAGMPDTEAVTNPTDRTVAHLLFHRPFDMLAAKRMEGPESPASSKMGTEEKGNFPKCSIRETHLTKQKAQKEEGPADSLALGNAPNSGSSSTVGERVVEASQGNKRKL

[4] = biological target: T3, RVE8-HFC (REVEILLE 8 with 3x-FLAG-6x-His C-terminal tag) (Arabidopsis thaliana) (UniProt Q8RWU3)
T3 sequence: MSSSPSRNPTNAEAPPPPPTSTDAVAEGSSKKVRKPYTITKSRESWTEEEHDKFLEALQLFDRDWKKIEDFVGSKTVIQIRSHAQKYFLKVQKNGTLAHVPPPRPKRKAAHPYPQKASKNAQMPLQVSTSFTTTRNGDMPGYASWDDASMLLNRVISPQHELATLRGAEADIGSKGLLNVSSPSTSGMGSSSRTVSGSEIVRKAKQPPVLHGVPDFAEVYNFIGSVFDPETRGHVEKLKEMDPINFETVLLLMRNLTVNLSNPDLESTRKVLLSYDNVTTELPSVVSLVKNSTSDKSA

[5] = biological target: T4, GFP-COR28 (COLD REGULATED GENE 28) (Arabidopsis thaliana) (UniProt Q8L983)
T4 sequence: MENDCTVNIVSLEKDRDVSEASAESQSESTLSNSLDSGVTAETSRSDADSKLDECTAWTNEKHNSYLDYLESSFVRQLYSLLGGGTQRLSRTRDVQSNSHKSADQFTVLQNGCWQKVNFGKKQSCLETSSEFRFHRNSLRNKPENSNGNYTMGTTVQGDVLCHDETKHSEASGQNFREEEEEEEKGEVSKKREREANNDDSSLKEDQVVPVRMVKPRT

Row | binding [1] | binding [2] | binding [3] | binding [4] | binding [5] | Sequence
1 | binds | binds | binds | binds | – | TOLERANT TO CHILLING/FREEZING 1 (TCF1) (from UniProt Q9M2S1)
2 | – | binds | – | – | binds | PHYTOCHROME B (PHYB) (from UniProt P14713 1-1172)
3 | binds | – | binds | binds | – | REGULATOR OF CHROMOSOME CONDENSATION 1-LIKE (RCC1L)
